Experimental data as given in patent US20250277051A1 (HANGZHOU UNOGEN BIOTECH, published 2025).
These are yes or no findings as the source states them, for the method shown. Some entries that bind do so weakly or less than the wild type.

By UniProt entry, the sequences of proteins in these tests, tags left out. Residues count along the entry.
UniProt P07766, residues 23-207: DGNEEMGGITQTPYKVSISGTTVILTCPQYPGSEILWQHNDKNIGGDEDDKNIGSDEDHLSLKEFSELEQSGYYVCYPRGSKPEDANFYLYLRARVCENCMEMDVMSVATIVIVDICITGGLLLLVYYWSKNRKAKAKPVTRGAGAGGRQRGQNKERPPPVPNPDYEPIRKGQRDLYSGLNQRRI

Biological target: human CD3 protein as natively presented on the surface of T cells (human) (UniProt P07766)
Assay: flow cytometry on CD3+ T cells from human PBMCs, gMFI (AF647)

Row | binding | Binder
1 | binds | SEQ ID NO:4 x 40G5 (bispecific antibody, V domains shown) VHH: EVQLQESGGGLVQAGHSLRLSCVGSGSRFDNYAMGWFRQAPGKEREFVAAISWSSGTTRYLDTVKGRFTISRDNAKSTVYLQMNSLKPEDTAVYYCAARYQPRYYDSGDMDGYEYDNWGQGTQVTVSS VH: EVQLVQSGAEVKKPGASVKVSCKASGYTFTNYYIHWVRQAPGQGLEWIGWIYPGDGNTKYNEKFKGRATLTADTSTSTAYLELSSLRSEDTAVYYCARDSYSNYYFDYWGQGTLVTVSS VL: DIVMTQSPDSLAVSLGERATINCKSSQSLLNSRTRKNYLAWYQQKPGQPPKLLIYWASTRESGVPDRFSGSGSGTDFTLTISSLQAEDVAVYYCTQSFILRTFGQGTKVEIK
2 | binds | SEQ ID NO: 4×SP34 v8 (bispecific antibody, V domains shown, CD38 VHO arm paired with a CD3 arm) VHH: EVQLQESGGGLVQAGHSLRLSCVGSGSRFDNYAMGWFRQAPGKEREFVAAISWSSGTTRYLDTVKGRFTISRDNAKSTVYLQMNSLKPEDTAVYYCAARYQPRYYDSGDMDGYEYDNWGQGTQVTVSS VH: EVQLVESGGGLVQPGGSLKLSCAASGFTFNTYAMNWVRQAPGKGLEWVARIRSKYNNYATYYADSVKDRFTISRDDSKNTAYLQMNNLKTEDTAVYYCVRHGNFGNSYVAWFAYWGQGTLVTVSS VL: QTVVTQEPSLTVSPGGTVTLTCRSSTGAVTTSNYANWVQQKPGQAPRGLIGGTNKRAPGTPARFSGSLLGGKAALTLSGVQPEDEAEYYCALWYSNLWVFGGGTKLTVL
